Laboratory results as given in publication PMC11365556.
Results are given in words; binding and its absence hold for the method and conditions named. Binding seen in cells or lysates may run through a third protein. Some entries that bind do so weakly or less than the wild type.

Assays:
[1] = target: T1, LPCAT3 as used in the co-immunoprecipitations (Fig. 2A, Fig. S6B) (human) (UniProt Q6P1A2); assay: co-IP; S protein beads, SFB-tagged proteins as baits (Fig. 2A); proteins detected by Western blot; Fig. S4N and S6B called co-immunoprecipitation in the text
T1 sequence: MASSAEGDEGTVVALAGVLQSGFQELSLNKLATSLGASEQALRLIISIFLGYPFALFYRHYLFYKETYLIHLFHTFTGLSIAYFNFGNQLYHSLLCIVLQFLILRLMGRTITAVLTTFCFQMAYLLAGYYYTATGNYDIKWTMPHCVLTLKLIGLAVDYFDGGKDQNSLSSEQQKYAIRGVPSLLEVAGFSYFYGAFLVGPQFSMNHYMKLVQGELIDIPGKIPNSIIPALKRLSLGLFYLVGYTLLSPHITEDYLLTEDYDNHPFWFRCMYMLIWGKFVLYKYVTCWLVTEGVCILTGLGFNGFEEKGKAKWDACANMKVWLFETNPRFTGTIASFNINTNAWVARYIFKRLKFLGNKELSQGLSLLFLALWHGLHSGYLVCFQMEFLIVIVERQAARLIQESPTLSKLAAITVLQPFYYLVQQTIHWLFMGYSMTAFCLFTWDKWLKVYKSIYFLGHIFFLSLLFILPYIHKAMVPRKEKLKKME

[2] = target: T2, CEPT1 wild type as used in the co-immunoprecipitations and pull-downs (Fig. 2A, S4N, 5A-D, S7G) (human) (UniProt Q9Y6K0); assay: pull-down; S protein beads, SFB-tagged proteins as baits; indicated proteins detected by Western blot (Fig. 5A-D)
T2 sequence: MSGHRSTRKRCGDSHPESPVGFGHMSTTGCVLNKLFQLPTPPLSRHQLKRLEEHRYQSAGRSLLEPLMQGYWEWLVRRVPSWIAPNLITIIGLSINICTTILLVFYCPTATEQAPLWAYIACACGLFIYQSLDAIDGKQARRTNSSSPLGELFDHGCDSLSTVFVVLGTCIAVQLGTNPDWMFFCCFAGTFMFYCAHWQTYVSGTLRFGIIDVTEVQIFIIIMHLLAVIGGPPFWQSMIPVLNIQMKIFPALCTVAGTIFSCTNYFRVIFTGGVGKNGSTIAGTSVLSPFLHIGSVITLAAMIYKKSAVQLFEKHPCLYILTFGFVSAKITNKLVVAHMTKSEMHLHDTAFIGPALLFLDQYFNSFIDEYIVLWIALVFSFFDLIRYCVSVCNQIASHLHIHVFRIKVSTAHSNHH

B1: EPT1 as used in the co-immunoprecipitation (Fig. S6B) (enzyme, UniProt Q9C0D9 1-397)
chain: MAGYEYVSPEQLAGFDKYKYSAVDTNPLSLYVMHPFWNTIVKVFPTWLAPNLITFSGFLLVVFNFLLMAYFDPDFYASAPGHKHVPDWVWIVVGILNFVAYTLDGVDGKQARRTNSSTPLGELFDHGLDSWSCVYFVVTVYSIFGRGSTGVSVFVLYLLLWVVLFSFILSHWEKYNTGILFLPWGYDISQVTISFVYIVTAVVGVEAWYEPFLFNFLYRDLFTAMIIGCALCVTLPMSLLNFFRSYKNNTLKLNSVYEAMVPLFSPCLLFILSTAWILWSPSDILELHPRVFYFMVGTAFANSTCQLIVCQMSSTRCPTLNWLLVPLFLVVLVVNLGVASYVESILLYTLTTAFTLAHIHYGVRVVKQLSSHFQIYPFSLRKPNSDULGMEEKNIGL
Question: B1 was tested. Which binding [1] did it give?
Answer: binds

B2: DDHD1 as used in the pull-down (Fig. 5A-D) (enzyme, UniProt Q8NEL9 1-900)
chain: MNYPGRGSPRSPEHNGRGGGGGAWELGSDARPAFGGGVCCFEHLPGGDPDDGDVPLALLRGEPGLHLAPGTDDHNHHLALDPCLSDENYDFSSAESGSSLRYYSEGESGGGGSSLSLHPPQQPPLVPTNSGGGGATGGSPGERKRTRLGGPAARHRYEVVTELGPEEVRWFYKEDKKTWKPFIGYDSLRIELAFRTLLQTTGARPQGGDRDGDHVCSPTGPASSSGEDDDEDRACGFCQSTTGHEPEMVELVNIEPVCVRGGLYEVDVTQGECYPVYWNQADKIPVMRGQWFIDGTWQPLEEEESNLIEQEHLNCFRGQQMQENFDIEVSKSIDGKDAVHSFKLSRNHVDWHSVDEVYLYSDATTSKIARTVTQKLGFSKASSSGTRLHRGYVEEATLEDKPSQTTHIVFVVHGIGQKMDQGRIIKNTAMMREAARKIEERHFSNHATHVEFLPVEWRSKLTLDGDTVDSITPDKVRGLRDMLNSSAMDIMYYTSPLYRDELVKGLQQELNRLYSLFCSRNPDFEEKGGKVSIVSHSLGCVITYDIMTGWNPVRLYEQLLQKEEELPDERWMSYEERHLLDELYITKRRLKEIEERLHGLKASSMTQTPALKFKVENFFCMGSPLAVFLALRGIRPGNTGSQDHILPREICNRLLNIFHPTDPVAYRLEPLILKHYSNISPVQIHWYNTSNPLPYEHMKPSFLNPAKEPTSVSENEGISTIPSPVTSPVLSRRHYGESITNIGKASILGAASIGKGLGGMLFSRFGRSSTTQSSETSKDSMEDEKKPVASPSATTVGTQTLPHSSSGFLDSAYFRLQESFFNLPQLLFPENVMQNKDNALVELDHRIDFELREGLVESRYWSAVTSHTAYWSSLDVALFLLTFMYKHEHDDDAKPNLDPI
Question: For B2, which binding [2] is on record?
Answer: binds

B3: DDHD2 as used in the pull-down (Fig. 5A-D) (enzyme, UniProt O94830 1-711)
chain: MSSVQSQQEQLSQSDPSPSPNSCSSFELIDMDAGSLYEPVSPHWFYCKIIDSKETWIPFNSEDSQQLEEAYSSGKGCNGRVVPTDGGRYDVHLGERMRYAVYWDELASEVRRCTWFYKGDKDNKYVPYSESFSQVLEETYMLAVTLDEWKKKLESPNREIIILHNPKLMVHYQPVAGSDDWGSTPTEQGRPRTVKRGVENISVDIHCGEPLQIDHLVFVVHGIGPACDLRFRSIVQCVNDFRSVSLNLLQTHFKKAQENQQIGRVEFLPVNWHSPLHSTGVDVDLQRITLPSINRLRHFTNDTILDVFFYNSPTYCQTIVDTVASEMNRIYTLFLQRNPDFKGGVSIAGHSLGSLILFDILTNQKDSLGDIDSEKDSLNIVMDQGDTPTLEEDLKKLQLSEFFDIFEKEKVDKEALALCTDRDLQEIGIPLGPRKKILNYFSTRKNSMGIKRPAPQPASGANIPKESEFCSSSNTRNGDYLDVGIGQVSVKYPRLIYKPEIFFAFGSPIGMFLTVRGLKRIDPNYRFPTCKGFFNIYHPFDPVAYRIEPMVVPGVEFEPMLIPHHKGRKRMHLELREGLTRMSMDLKNNLLGSLRMAWKSFTRAPYPALQASETPEETEAEPESTSEKPSDVNTEETSVAVKEEVLPINVGMLNGGQRIDYVLQEKPIESFNEYLFALQSHLCYWESEDTVLLVLKEIYQTQGIFLDQPLQ
Question: How did the binding [2] turn out when B3 was run?
Answer: binds

B4: ABHD3 as used in the pull-down (Fig. 5A-D) (enzyme, UniProt Q8WU67 1-409)
chain: MQRLAMDLRMLSRELSLYLEHQVRVGFFGSGVGLSLILGFSVAYAFYYLSSIAKKPQLVTGGESFSRFLQDHCPVVTETYYPTVWCWEGRGQTLLRPFITSKPPVQYRNELIKTADGGQISLDWFDNDNSTCYMDASTRPTILLLPGLTGTSKESYILHMIHLSEELGYRCVVFNNRGVAGENLLTPRTYCCANTEDLETVIHHVHSLYPSAPFLAAGVSMGGMLLLNYLGKIGSKTPLMAAATFSVGWNTFACSESLEKPLNWLLFNYYLTTCLQSSVNKHRHMFVKQVDMDHVMKAKSIREFDKRFTSVMFGYQTIDDYYTDASPSPRLKSVGIPVLCLNSVDDVFSPSHAIPIETAKQNPNVALVLTSYGGHIGFLEGIWPRQSTYMDRVFKQFVQAMVEHGHELS
Question: How did the binding [2] turn out when B4 was run?
Answer: binds
